# In patent publication US20230399327A1, “HIGH ACTIVITY HPK1 KINASE INHIBITOR” (ADLAI NORTYE BIOPHARMA CO., LTD., priority 2020, published 2023):
# Structures were worked out from names or drawings and are uncertain.
# Legend:
# mouse spleen cells = assay: Spleen IL-2 ELISA assay (IL-2 secretion after Concanavalin A); conditions: highest signal vs 0.1% DMSO, at compound concentration 10 μM, ConA, 24 h
# Procedure: Test Example 3: Detection of Compound's Activating Ability to Secrete Cytokine Interleukin-2 (IL-2) from Mouse Spleen Cells (Method 3)
# The specific operation is as follows: the compound powder was dissolved in DMSO to 10 mM, 2 μl of the compound was added to 998 μl of RPMI 1640 medium (contained 10% FBS in this test), and the highest concentration point was obtained after vortexing. The compound solution was gradually diluted 3 times with 0.2% DMSO medium, with a total of 8 concentration points. That treated with RPMI 1640 medium solution containing 0.1% DMSO was used as a control. Add 10^5 mouse spleen cells to each well of Corning 96-well cell culture plate (product number: 3599), then add an equal volume of compound dilution, add RPMI 1640 medium containing 0.2% DMSO to the control group, and place the cells at 37° C. to incubate for 1 h in a cell culture incubator (Thermo Fisher Scientific, model: 3111). Then add Concanavalin A at a final concentration of 0.4 μg/ml and place in a cell culture incubator at 37° C. for 24 hours. Mouse IL-2 DuoSet ELISA KIT was used to detect the IL-2 content in the cell supernatant, and the Mouse […] DuoSet ELISA detection was carried out according to the operating instructions of the kit. Data are described as the highest fold ratio of the stimulated signal of the compound to the signal of 0.1% DMSO.
# DC2.4 cells = assay: DC2.4 IL-6 ELISA assay (IL-6 secretion after LPS); conditions: highest signal vs 0.1% DMSO, at compound concentration 3.33 μM, 24 h
# Procedure: Test Example 4: Detection of Compound's Activating Ability to Stimulate DC2.4 Cells to Secrete Cytokine Interleukin-6 (IL-6) ([…])
# The specific operation is as follows: the compound powder was dissolved in DMSO to 10 mM, 2 μl of the compound was added to 998 μl of RPMI 1640 medium (contained 10% FBS in this test), and the highest concentration point was obtained after vortexing. The compound solution was gradually diluted 3 times with 0.2% DMSO medium, with a total of 8 concentration points. That treated with RPMI 1640 medium solution containing 0.1% DMSO was used as a control. Add 10^5 DC2.4 cells to each well of Corning 96-well cell culture plate (product number: 3599), then add an equal volume of compound dilution, add RPMI 1640 medium containing 0.2% DMSO to the control group, and place the cells at 37° C. to incubate for 1 h in an incubator (Thermo Fisher Scientific, model: 3111). Subsequently, LPS was added at a final concentration of 3.2 ng/ml, and placed in a cell culture incubator at 37° C. for 24 hours. Mouse IL-6 DuoSet ELISA KIT was used to detect the IL-6 content in the cell supernatant, and the Mouse […] DuoSet ELISA detection was carried out according to the operating instructions of the kit. Data are described as the highest fold ratio of the stimulated signal of the compound to the signal of 0.1% DMSO.
# PBMC = PBMC IL-2 ELISA assay (IL-2 secretion after anti-CD3/anti-CD28); conditions: highest signal vs 0.1% DMSO, at compound concentration 3.3 μM, anti-CD3/CD28, 24 h
# Procedure: Test Example 5: Detection of Compound's Activating Ability to Secrete Cytokine Interleukin-2 (IL-2) from PBMC (Method 5)
# The specific operation is as follows: the compound powder was dissolved in DMSO to 10 mM, 2 μl of the compound was added to 998 μl of RPMI 1640 medium (contained 10% FBS in this test), and the highest concentration point was obtained after vortexing. The compound solution was gradually diluted 3 times with 0.2% DMSO medium, with a total of 8 concentration points. That treated with RPMI 1640 medium solution containing 0.1% DMSO was used as a control. 1×10˜ 5 PBMC cells were added to each well of Corning 96-well cell culture plate (item number: 3599), and then the same volume of compound diluent was added to the control group. RPMI 1640 medium containing 0.2% DMSO was added to the control group and incubated in a 37° C. cell incubator (Thermo Fisher Scientific, model: 3111) for 1 hour. Then add Anti-human CD3 Antibody and 1 μg/ml Anti-human CD28 Antibody at a final concentration of 0.1 μg/ml, and place in a 37° C. cell culture incubator to incubate for 24 hours. The Human IL-2 DuoSet ELISA KIT was used to detect the IL-2 content in the cell supernatant, and the Human IL-2 DuoSet ELISA detection was performed according to the operating instructions of the kit. […]
smiles,measurement,setting,value
CCOc1nc2c(cc1Nc1ncc3ccnc(N[C@@H]4CC[C@@H](O)C4)c3n1)CN(C)CC2 (relative stereo),% IL-2 increased (relative to DMSO control),mouse spleen cells,200%
same,% IL-6 increased (relative to DMSO control),DC2.4 cells,381.00%
same,% IL-2 increased (relative to DMSO control),PBMC,217%
